Assay results taken from patent US9388210B2, “Neuroactive 17(20)-Z-vinylcyano-substituted steroids, prodrugs thereof, and methods of treatment using same” (priority 2011, dated 2016).

Tests used:
tadpole = assay: Tadpole loss of righting reflex (LRR) and loss of swimming reflex (LSR); assay type: in vivo; settings: for Tadpole LRR nHill: loss of righting reflex; for Tadpole LSR nHill: loss of swimming reflex
[1] = tested on: picrotoxin binding site on GABAA receptors; settings: ± SEM

Compound | Tadpole LRR nHill (tadpole) | Tadpole LSR nHill (tadpole) | nHill, [35S]-TBPS binding [1]
C[C@]12CC[C@@H](O)C[C@@H]1CC[C@@H]1[C@@H]2C(=O)C[C@]2(C)/C(=C\C#N)CC[C@@H]12 [Compound 6a, [3α,5α,17(20)Z]-3-Hydroxy-11-oxopregn-17(20)-ene-2′-nitrile] | −2.84 ± 0.77 | −33 ± 0 | –
C[C@]12CC[C@@H](O)C[C@@H]1CC[C@@H]1[C@@H]2C(=O)C[C@]2(C)/C(=C/C#N)CC[C@@H]12 [Compound 6b, [3α,5α,17(20)E]-3-Hydroxy-11-oxopregn-17(20)-ene-2′-nitrile] | −1.70 ± 1.15 | −36 ± 0 | –
C/C(C#N)=C1\CC[C@H]2[C@@H]3CC[C@H]4C[C@H](O)CC[C@]4(C)[C@H]3C(=O)C[C@]12C [Compound 6c, [3α,5α,17(20)Z]-3-Hydroxy-11-oxopregn-17(20)-ene-20-carbonitrile] | −2.47 ± 0.64 | −33 ± 0 | –
C[C@]12CC[C@@H](O)C[C@@H]1CC[C@@H]1[C@@H]2CC[C@]2(C)/C(=C\C#N)CC[C@@H]12 [Compound 14a, [3α,5α,17(20)Z]-3-Hydroxypregn-17(20)-ene-21-nitrile] | – | – | 1.09 ± 0.14
C[C@]12CC[C@@H](O)C[C@@H]1CC[C@@H]1[C@@H]2CC[C@]2(C)/C(=C/C#N)CC[C@@H]12 [Compound 14b, [3α,5α,17(20)E]-3-Hydroxypregn-17(20)-ene-21-nitrile] | −4.29 ± 6.62 | – | 0.97 ± 0.06
C[C@]12CC[C@@H](O)C[C@H]1CC[C@@H]1[C@@H]2CC[C@]2(C)/C(=C\C#N)CC[C@@H]12 [Compound 15a, [3α,5β,17(20)Z]-3-Hydroxypregn-17(20)-ene-21-nitrile] | −2.21 ± 0.34 | −18.5 ± 0 | 0.94 ± 0.14
C[C@]12CC[C@@H](O)C[C@H]1CC[C@@H]1[C@@H]2CC[C@]2(C)/C(=C/C#N)CC[C@@H]12 [Compound 15b, [(3α,5β,17(20)E]-3-Hydroxypregn-17(20)-ene-21-nitrile] | −4.28 ± 5.67 | −33.2 ± 0.15 | 1.10 ± 0.34
CO[C@H]1C[C@@]2(C)[C@@H](CC[C@@H]3[C@@H]2CC[C@]2(C)/C(=C\C#N)CC[C@@H]32)C[C@@H]1O [Compound 16a, [2β,3α,5α,17(20)Z]-3-Hydroxy-2-methoxyandrost-17(20)-ene-21-nitrile] | −1.57 ± 0.43 | −18.6 ± 0.4 | 1.09 ± 0.05
CO[C@H]1C[C@@]2(C)[C@@H](CC[C@@H]3[C@@H]2CC[C@]2(C)/C(=C/C#N)CC[C@@H]32)C[C@@H]1O [Compound 16b, [2β,3α,5α,17(20)E]-3-Hydroxy-2-methoxyandrost-17(20)-ene-21-nitrile] | −1.82 ± 0.49 | −20.8 ± 0.5 | 0.86 ± 0.10
CO[C@H]1C[C@]2(C)/C(=C\C#N)CC[C@H]2[C@@H]2CC[C@H]3C[C@H](O)CC[C@]3(C)[C@H]21 [Compound 17a, [3α,5α,11β,17(20)Z]-3-Hydroxy-11-methoxypregn-17(20)-ene-21-nitrile] | −2.26 ± 0.15 | −36.3 ± 0.1 | 1.51 ± 0.21
CO[C@H]1C[C@]2(C)/C(=C/C#N)CC[C@H]2[C@@H]2CC[C@H]3C[C@H](O)CC[C@]3(C)[C@H]21 [Compound 17b, [3α,5α,11β,17(20)E]-3-Hydroxy-11-methoxypregn-17(20)-en-21-nitrile] | −6.23 ± 14.2 | −15.7 ± 0.9 | 1.27 ± 0.30
[3α,5α,17(20)E]-3-(Acetyloxy)-11-oxopregn-17(20)-ene-20-carbonitrile [Compound 6d] | −2.42 ± 0.24 | – | –
